The other results are listed elsewhere or left out.

The chains behind the UniProt entries cited, without tags or fusion partners. Where a name states a change or a piece, a line headed by the entry shows the natural chain unless it says otherwise.
UniProt Q8IU81: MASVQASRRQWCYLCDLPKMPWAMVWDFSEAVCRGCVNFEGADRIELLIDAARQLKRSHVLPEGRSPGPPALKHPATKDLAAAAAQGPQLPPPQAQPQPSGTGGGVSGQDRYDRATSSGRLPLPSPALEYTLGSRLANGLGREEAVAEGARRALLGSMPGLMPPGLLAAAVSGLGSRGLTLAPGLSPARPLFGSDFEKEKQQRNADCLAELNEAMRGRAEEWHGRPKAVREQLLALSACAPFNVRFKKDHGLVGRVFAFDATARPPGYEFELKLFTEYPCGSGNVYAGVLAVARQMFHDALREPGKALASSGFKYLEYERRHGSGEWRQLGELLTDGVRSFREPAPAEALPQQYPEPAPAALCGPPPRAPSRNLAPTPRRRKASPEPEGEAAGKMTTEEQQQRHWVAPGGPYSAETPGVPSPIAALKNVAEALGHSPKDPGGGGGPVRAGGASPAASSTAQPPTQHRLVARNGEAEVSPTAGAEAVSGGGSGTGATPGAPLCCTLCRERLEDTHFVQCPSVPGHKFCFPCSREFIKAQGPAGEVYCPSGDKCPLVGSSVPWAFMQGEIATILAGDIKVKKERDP
UniProt P58166: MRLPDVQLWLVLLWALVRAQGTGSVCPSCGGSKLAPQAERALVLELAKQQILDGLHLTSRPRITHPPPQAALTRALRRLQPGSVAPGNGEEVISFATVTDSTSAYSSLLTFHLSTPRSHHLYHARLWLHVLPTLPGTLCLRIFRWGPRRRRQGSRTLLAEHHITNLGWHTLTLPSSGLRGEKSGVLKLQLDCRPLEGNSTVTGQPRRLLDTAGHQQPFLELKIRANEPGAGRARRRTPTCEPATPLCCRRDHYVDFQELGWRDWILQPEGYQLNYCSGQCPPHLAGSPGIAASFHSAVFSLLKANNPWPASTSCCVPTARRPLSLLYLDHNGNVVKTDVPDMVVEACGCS
UniProt P01344, whole entry, looked up: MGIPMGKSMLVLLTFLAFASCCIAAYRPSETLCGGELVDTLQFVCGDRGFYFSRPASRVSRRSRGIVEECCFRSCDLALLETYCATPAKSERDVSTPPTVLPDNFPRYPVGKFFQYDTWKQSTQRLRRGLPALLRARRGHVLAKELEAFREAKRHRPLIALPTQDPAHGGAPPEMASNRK
UniProt Q9H2S9: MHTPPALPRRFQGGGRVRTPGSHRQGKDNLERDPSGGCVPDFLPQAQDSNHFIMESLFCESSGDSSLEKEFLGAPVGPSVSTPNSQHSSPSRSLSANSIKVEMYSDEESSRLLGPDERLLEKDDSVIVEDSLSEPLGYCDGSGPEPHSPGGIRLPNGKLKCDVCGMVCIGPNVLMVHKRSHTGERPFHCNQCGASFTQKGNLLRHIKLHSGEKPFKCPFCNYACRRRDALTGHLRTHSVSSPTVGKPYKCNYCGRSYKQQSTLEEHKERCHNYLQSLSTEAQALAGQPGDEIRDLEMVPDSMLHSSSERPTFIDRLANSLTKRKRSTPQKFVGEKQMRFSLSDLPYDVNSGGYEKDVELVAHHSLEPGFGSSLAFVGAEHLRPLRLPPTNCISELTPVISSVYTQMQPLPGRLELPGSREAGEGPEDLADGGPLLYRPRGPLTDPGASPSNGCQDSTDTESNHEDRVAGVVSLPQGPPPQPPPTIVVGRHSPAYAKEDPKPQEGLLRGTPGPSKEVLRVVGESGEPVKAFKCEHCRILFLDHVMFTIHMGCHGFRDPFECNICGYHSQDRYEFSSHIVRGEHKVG
UniProt Q8NBZ0, whole entry, looked up: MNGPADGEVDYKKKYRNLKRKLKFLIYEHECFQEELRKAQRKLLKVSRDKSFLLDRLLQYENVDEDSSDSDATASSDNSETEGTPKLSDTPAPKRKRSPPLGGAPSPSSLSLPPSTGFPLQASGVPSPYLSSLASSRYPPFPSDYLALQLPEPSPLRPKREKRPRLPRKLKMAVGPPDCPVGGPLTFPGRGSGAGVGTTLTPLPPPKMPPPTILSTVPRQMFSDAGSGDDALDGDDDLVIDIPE
UniProt Q96F46, whole entry, looked up: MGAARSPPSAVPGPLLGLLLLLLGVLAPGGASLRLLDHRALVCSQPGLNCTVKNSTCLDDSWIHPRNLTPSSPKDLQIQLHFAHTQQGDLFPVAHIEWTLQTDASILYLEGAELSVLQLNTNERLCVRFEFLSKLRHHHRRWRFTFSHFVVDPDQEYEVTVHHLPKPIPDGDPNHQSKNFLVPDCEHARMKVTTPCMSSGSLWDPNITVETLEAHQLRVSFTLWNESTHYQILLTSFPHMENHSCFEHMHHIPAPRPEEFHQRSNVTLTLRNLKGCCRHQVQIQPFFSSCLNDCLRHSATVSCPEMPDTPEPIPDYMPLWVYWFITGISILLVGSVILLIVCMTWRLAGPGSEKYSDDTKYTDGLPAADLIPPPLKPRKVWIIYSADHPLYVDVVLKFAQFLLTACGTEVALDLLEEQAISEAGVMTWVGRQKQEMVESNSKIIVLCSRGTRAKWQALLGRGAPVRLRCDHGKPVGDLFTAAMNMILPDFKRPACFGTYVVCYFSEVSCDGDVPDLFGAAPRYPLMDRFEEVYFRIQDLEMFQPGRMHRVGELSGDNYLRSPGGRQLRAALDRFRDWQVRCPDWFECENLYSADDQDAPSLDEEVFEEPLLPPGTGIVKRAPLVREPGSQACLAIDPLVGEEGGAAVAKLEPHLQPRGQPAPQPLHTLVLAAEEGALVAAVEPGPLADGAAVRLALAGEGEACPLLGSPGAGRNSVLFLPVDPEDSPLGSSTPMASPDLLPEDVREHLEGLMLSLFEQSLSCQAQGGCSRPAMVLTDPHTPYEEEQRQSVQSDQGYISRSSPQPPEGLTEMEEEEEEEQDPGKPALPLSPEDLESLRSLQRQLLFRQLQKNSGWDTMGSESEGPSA
UniProt P0DMQ5: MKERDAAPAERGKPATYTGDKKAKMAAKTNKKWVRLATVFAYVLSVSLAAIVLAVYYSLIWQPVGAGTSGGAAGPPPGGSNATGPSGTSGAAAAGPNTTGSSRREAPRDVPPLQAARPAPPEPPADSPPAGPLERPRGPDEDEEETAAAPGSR
UniProt Q9UK53: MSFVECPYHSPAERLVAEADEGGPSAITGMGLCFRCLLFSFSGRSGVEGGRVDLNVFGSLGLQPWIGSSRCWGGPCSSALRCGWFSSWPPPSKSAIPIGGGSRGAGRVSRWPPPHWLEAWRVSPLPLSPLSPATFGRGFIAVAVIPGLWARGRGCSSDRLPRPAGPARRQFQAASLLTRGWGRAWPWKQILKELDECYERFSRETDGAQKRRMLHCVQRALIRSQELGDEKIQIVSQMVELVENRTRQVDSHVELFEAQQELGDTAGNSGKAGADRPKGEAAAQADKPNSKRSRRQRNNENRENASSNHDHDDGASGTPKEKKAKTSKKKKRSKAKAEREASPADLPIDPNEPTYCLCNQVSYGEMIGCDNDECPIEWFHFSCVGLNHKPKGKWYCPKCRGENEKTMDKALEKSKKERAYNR
UniProt Q96A47: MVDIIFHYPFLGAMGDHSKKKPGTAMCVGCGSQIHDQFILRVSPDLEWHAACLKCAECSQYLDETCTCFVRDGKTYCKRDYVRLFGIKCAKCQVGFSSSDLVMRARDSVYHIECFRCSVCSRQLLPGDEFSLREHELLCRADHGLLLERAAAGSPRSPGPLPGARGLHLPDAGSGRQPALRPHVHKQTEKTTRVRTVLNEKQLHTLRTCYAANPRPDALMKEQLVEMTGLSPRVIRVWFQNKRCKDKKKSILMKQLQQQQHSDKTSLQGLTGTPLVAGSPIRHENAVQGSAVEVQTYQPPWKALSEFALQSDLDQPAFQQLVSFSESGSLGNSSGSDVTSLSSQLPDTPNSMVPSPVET
UniProt Q9NRY2: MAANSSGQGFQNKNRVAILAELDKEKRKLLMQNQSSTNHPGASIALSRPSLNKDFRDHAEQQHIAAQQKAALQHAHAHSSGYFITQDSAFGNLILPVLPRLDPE
UniProt Q14573, whole entry, looked up: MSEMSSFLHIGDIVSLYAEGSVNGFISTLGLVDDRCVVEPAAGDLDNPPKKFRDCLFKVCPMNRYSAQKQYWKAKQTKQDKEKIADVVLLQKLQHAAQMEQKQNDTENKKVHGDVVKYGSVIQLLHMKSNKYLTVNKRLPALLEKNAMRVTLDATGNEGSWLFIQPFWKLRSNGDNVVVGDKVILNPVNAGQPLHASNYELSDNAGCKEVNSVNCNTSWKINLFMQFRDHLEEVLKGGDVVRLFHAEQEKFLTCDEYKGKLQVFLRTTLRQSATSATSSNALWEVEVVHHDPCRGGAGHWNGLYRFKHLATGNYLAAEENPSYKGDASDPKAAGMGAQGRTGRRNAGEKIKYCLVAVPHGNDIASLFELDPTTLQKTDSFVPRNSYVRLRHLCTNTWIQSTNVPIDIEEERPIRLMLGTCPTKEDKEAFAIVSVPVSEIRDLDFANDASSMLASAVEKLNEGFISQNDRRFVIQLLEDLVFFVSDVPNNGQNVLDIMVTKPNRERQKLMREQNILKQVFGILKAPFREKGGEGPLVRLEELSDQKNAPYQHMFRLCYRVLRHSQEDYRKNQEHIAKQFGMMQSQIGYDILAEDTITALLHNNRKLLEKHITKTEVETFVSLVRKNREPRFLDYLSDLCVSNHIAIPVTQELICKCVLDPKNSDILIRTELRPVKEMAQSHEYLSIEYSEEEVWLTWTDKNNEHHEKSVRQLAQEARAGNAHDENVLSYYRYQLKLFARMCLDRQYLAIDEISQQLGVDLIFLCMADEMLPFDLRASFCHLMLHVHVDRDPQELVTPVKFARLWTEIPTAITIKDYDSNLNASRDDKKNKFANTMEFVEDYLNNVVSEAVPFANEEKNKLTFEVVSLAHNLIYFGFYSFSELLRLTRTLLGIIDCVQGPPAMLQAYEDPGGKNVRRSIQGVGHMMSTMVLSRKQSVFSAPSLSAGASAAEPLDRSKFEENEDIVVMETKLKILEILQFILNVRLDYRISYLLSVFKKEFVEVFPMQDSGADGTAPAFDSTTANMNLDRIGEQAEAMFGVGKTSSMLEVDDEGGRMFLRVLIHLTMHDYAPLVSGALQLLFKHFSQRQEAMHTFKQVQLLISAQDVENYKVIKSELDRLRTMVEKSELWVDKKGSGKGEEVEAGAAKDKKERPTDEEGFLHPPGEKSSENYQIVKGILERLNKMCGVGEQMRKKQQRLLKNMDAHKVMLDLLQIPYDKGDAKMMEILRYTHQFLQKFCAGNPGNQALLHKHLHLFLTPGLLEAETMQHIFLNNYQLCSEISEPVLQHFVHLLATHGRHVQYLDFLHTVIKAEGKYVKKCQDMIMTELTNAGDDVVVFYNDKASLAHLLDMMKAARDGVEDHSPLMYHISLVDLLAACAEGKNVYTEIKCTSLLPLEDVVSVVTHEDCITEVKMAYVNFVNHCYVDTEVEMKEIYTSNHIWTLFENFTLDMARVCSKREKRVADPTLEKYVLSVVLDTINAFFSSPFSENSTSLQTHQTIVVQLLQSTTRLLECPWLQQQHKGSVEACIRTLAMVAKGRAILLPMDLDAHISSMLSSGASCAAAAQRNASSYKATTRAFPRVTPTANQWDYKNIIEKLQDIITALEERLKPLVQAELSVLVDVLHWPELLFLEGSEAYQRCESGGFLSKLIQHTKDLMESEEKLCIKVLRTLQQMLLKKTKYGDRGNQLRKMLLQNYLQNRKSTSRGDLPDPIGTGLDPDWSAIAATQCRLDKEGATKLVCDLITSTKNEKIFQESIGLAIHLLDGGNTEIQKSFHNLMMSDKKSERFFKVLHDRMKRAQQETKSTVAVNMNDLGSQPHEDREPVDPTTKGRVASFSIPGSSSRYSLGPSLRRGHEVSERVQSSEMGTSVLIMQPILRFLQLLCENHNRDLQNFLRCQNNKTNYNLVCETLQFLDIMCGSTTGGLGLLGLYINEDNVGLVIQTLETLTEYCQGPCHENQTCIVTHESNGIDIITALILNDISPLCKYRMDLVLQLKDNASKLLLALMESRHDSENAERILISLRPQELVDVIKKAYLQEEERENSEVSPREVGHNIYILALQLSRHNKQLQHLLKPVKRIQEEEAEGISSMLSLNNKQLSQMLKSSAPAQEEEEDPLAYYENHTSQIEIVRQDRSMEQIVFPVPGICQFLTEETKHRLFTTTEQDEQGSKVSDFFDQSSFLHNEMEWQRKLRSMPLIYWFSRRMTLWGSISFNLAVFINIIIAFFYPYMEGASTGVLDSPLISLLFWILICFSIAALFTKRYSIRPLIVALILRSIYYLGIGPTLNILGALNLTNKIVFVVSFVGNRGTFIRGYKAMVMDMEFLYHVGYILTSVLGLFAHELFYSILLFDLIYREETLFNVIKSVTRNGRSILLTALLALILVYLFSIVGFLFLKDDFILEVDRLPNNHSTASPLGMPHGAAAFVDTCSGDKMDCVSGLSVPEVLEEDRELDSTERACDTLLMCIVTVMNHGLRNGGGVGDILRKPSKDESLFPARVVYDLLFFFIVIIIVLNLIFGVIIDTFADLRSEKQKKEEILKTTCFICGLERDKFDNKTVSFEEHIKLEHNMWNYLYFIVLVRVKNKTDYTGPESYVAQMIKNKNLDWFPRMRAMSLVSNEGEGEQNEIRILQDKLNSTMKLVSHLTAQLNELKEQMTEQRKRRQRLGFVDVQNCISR

Common to all, as to assay: log2 fold change, soluble protein after heating vs DMSO (PISA); higher = thermal stabilisation; K562 cells, 10 uM, 30 min; active = over 0.2 and 3.5 SD of the protein, either way, in both replicates (recomputed)
Compound in test [1]: C1=CC=C(C=C1)[C@H](COC2=CC3=C(C=C2)NC(=O)N3)NC(=O)C4=CC=CN(C4=O)CC5=CC(=C(C=C5)F)F
In short, it runs like this: (§1)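 K562 cells at 2×10^6 cells/mL were given 10 μM compound for 30 min. Aliquots then went through 3 min of heating across 48°C-58°C, were pooled, and were extracted in PBS with 0.5% NP-40 at 4°C, and the supernatant after 21,000xg for 90 min was quantified by TMTpro 16plex LC-MS/MS with channel sums equalised. Thermal stability relative to control samples, from duplicates, is given as log2 fold change.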

Compound in test [2]: CC1=C2C(=CC=C1)N=C(N(C2=O)C3=CC=CC=C3C)CN4C=NC5=C(N=CN=C54)N
The method in brief: as §1

Compound in test [3]: Cc1sc2c(c1C)C(c1ccc(Cl)cc1)=N[C@@H](CC(=O)OC(C)(C)C)c1nnc(C)n1-2
The method in brief: as §1

Compound in test [4]: CC1=C(SC2=C1C(=N[C@H](C3=NN=C(N32)C)CC(=O)N)C4=CC=C(C=C4)Cl)C
In short, it runs like this: as §1

Compound in test [5]: c1ccc([C@@H]2C[C@H]2NC2CCNCC2)cc1
The method in brief:
as §1

On to IGHG1 (UniProt P01857), for which the log2 fold change in test [1] was inactive: -0.001; in test [2] it was inactive: -0.105.

INTS1 (UniProt Q8N201): in test [3], the log2 fold change is inactive: 0.075.

On to ITPKA (UniProt P23677), for which the log2 fold change was inactive: -0.126 in test [1], inactive: 0.208 in test [2] and inactive: 0.083 in test [3].

With IGFBP5 (UniProt P24593), the log2 fold change in test [2] is inactive: 0.189; in test [3] it was inactive: -0.456.

Take IRF2BP1 (UniProt Q8IU81): the log2 fold change in test [1] is inactive: -0.004; in test [4] it was inactive: 0.033; in test [3], inactive: -0.017; in test [5], inactive: 0.037.

As for IGKC (UniProt P01834), the results for the log2 fold change in test [1], in test [2] and in test [3] were inactive: 0.18, inactive: -0.014 and inactive: -0.28, respectively.

Take IMPDH2 (UniProt H0Y4R1): the figures for the log2 fold change in test [1], in test [2] and in test [3] were inactive: 0.109, inactive: -0.134 and inactive: 0.083, respectively.

Consider ING5 (UniProt Q8WYH8), for which the values for the log2 fold change in test [4], in test [3] and in test [5] were inactive: 0.051, inactive: 0.036 and inactive: -0.037, respectively.

Turning to INTS12 (UniProt Q96CB8), the log2 fold change in test [4] was inactive: 0.054; in test [2], inactive: 0; in test [3] it was inactive: 0.057; in test [5] it was inactive: -0.22.

Turning to INHBE (UniProt P58166), the log2 fold change in test [1] is inactive: -0.025; in test [2], inactive: 0.142.

Regarding IGFBP3 isoform 2 (UniProt P17936), the log2 fold change in test [4] is inactive: -0.081; in test [2] it was inactive: 0.034; in test [3] it was inactive: -0.083; in test [5] it was inactive: 0.057.

Turning to INPP5K (UniProt Q9BT40), the log2 fold change in test [4] is inactive: -0.1; in test [2], inactive: 0.006; in test [3] it was inactive: 0.016; in test [5], inactive: -0.153.

For the target INTS2 (UniProt Q9H0H0), the log2 fold change in test [4] was inactive: 0.376; in test [2] it was inactive: 0.086; in test [3] it was inactive: -0.267; in test [5], inactive: 0.023.

With IGF2 isoform 3 (UniProt P01344), the log2 fold change in test [2] is inactive: 0.077.

For the target ITPRID2 (UniProt P28290), the log2 fold change in test [2] was inactive: 0.106.

In the case of IKZF4 (UniProt Q9H2S9), the log2 fold change in test [1] is inactive: -0.157; in test [4], inactive: -0.002; in test [2], inactive: 0.043; in test [5], inactive: -0.042.

As to INO80E (UniProt Q8NBZ0), the log2 fold change in test [1] is inactive: 0.115; in test [3], inactive: 0.145.

With IFT27 (UniProt Q9BW83), the log2 fold change in test [4] is inactive: -0.056; in test [5], inactive: 0.137.

Regarding IL17RA (UniProt Q96F46), the log2 fold change in test [3] is inactive: -0.215.

INAFM2 (UniProt P0DMQ5): the log2 fold change in test [1] was inactive: 0.037; in test [4], inactive: 0.038; in test [3] it was inactive: 0.05; in test [5] it was inactive: -0.057.

Consider ITGA2B (UniProt P08514), for which the log2 fold change was inactive: 0.022 in test [4], inactive: 0.112 in test [2], inactive: 0.029 in test [3] and inactive: -0.043 in test [5].

As for ITGB1BP1 (UniProt O14713), the log2 fold change in test [1] was inactive: 0.02; in test [3], inactive: -0.094.

ING1 (UniProt Q9UK53): the log2 fold change in test [1] was inactive: -0.025; in test [4], inactive: -0.02; in test [3], inactive: -0.018; in test [5] it was inactive: -0.091.

Take INF2 (UniProt Q27J81): the log2 fold change in test [1] is inactive: -0.004; in test [4], inactive: -0.043; in test [5], inactive: 0.162.

As to IKZF1 (UniProt R9R4D9), the log2 fold change is inactive: 0.08 in test [4], inactive: 0.039 in test [3] and inactive: -0.159 in test [5].

For IQSEC2 (UniProt Q5JU85), the values for the log2 fold change in test [4] and in test [5] were inactive: -0.044 and inactive: -0.046, respectively.

As to ISL2 (UniProt Q96A47), the log2 fold change in test [1] is inactive: -0.075; in test [4] it was inactive: 0.078; in test [5], inactive: -0.135.

For the target IGLL5 (UniProt B9A064), the log2 fold change in test [1] was inactive: -0.059; in test [3] it was inactive: -0.032.

For INIP (UniProt Q9NRY2), the log2 fold change in test [2] is inactive: 0.199.

ITPR3 (UniProt Q14573): the values for the log2 fold change in test [4], in test [2] and in test [5] were inactive: -0.217, inactive: 0.195 and inactive: 0.143, respectively.

For the origin of these results see the supplement of paper PMC10849652.
